PubChem BioAssay AID1259405 – NCATS – 2018
Purpose: 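Knock-downs that lift recombinant protein yield in hamster ovary cells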 (primary screen). System: Chinese hamster CHO-K1 ovary cells with stable secreted eGFP expression. Knock-down reagent: single siRNA against mouse genes, 0.8 pmol siRNA per well (2 µl of 400 nM stock). Duration: 3 days. Read-out: 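Per-well intracellular GFP measured by laser scanning cytometry, plus viability from ATP luminescence, each relative to plate median of non-targeting control wells, in %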. Direction: GFP, % of control: higher = more GFP per well, higher productivity; viability (ATP), % of control: higher = more viable cells (more ATP). Hit rule: 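Called active when intracellular GFP, relative to negative control, is at or above 120%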.
The deposit covers about 50,000 reagents; below is an unselected part. About 4,000 of them (8%) were called active. 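Mouse siRNA library applied to hamster cells; one well for each siRNA.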 Entries without a mark were called inactive. The numbers tell different reagents against one gene apart. Reagent sequences are not shown.

target gene	reagent	GFP, % of control	viability (ATP), % of control
Ulbp1 (UL16 binding protein 1)	1	81.3	50.2
Ulbp1 (UL16 binding protein 1)	2	81.9	86.5
Ulbp1 (UL16 binding protein 1)	3	78.5	58.8
Pmel (premelanosome protein)	1	64.8	60.4
Pmel (premelanosome protein)	2	117	88.1
Pmel (premelanosome protein)	3	82.5	73.7
Hmg20b (high mobility group 20B)	1	73.5	65.9
Hmg20b (high mobility group 20B)	2	110	60.7
Hmg20b (high mobility group 20B)	3	100	97.7
Cox5b (cytochrome c oxidase subunit 5B)	1	77.7	68.6
Cox5b (cytochrome c oxidase subunit 5B)	2	57.7	70.4
Cox5b (cytochrome c oxidase subunit 5B)	3	90.3	67
Tmem239 (transmembrane 239)	1	61.6	82.5
Tmem239 (transmembrane 239)	2	114	90.1
Tmem239 (transmembrane 239)	3	75	105
Frem1 (Fras1 related extracellular matrix protein 1)	1	101	70.5
Frem1 (Fras1 related extracellular matrix protein 1)	2	59.7	88.2
Frem1 (Fras1 related extracellular matrix protein 1)	3	112	85.5
Tcof1 (treacle ribosome biogenesis factor 1)	1	52.2	60.9
Tcof1 (treacle ribosome biogenesis factor 1)	2	68.3	44.9
Tcof1 (treacle ribosome biogenesis factor 1)	3	136 (active)	93.8
Smyd2 (SET and MYND domain containing 2)	1	66.4	90.3
Smyd2 (SET and MYND domain containing 2)	2	90.5	116
Slc17a7	1	72.4	52.3
Slc17a7	2	89.6	89.7
Slc17a7	3	89.9	104
Atp10a (ATPase, class V, type 10A)	1	114	119
Atp10a (ATPase, class V, type 10A)	2	79.5	121
Atp10a (ATPase, class V, type 10A)	3	120 (active)	122
Gpc5 (glypican 5)	1	57.8	93.5
Gpc5 (glypican 5)	2	93	81.3
Gpc5 (glypican 5)	3	49.2	65.3
Tacstd2 (tumor-associated calcium signal transducer 2)	1	105	37.2
Tacstd2 (tumor-associated calcium signal transducer 2)	2	81.5	51.2
Tacstd2 (tumor-associated calcium signal transducer 2)	3	72.9	54.7
Ceacam2 (CEA cell adhesion molecule 2)	1	64	67
Ceacam2 (CEA cell adhesion molecule 2)	2	62.7	84
Ceacam2 (CEA cell adhesion molecule 2)	3	64	74.7
Rras (RAS oncogene related)	1	98.5	62.5
Rras (RAS oncogene related)	2	100	86.1
Rras (RAS oncogene related)	3	82.5	80.7
Pik3cg	1	57.7	76
Krt85 (keratin 85)	1	78.6	97.6
Krt85 (keratin 85)	2	31.9	39.4
Zic4 (zinc finger protein of the cerebellum 4)	1	69.5	62.5
Zic4 (zinc finger protein of the cerebellum 4)	2	121 (active)	98.8
Sardh (sarcosine dehydrogenase)	1	77.3	95.9
Sardh (sarcosine dehydrogenase)	2	104	65.8
Sardh (sarcosine dehydrogenase)	3	59.6	69.4
Magix (MAGI family member, X-linked)	1	51.2	80.7
Magix (MAGI family member, X-linked)	2	75.6	43.5
Magix (MAGI family member, X-linked)	3	56.6	83.6
Ulk2 (unc-51 like kinase 2)	1	84.3	92.7
Ulk2 (unc-51 like kinase 2)	2	81.9	78.5
Ulk2 (unc-51 like kinase 2)	3	59.3	76.9
Fermt3 (fermitin family member 3)	1	63	81.3
Fermt3 (fermitin family member 3)	2	80.5	86
Fermt3 (fermitin family member 3)	3	115	120
Gm5105 (predicted gene 5105)	1	71.5	75.3
Gm5105 (predicted gene 5105)	2	78.1	81
Gm5105 (predicted gene 5105)	3	85.9	97.3
Cpsf3 (cleavage and polyadenylation specificity factor 3)	1	112	95.4
Cpsf3 (cleavage and polyadenylation specificity factor 3)	2	104	87.2
Cpsf3 (cleavage and polyadenylation specificity factor 3)	3	107	80.1
Trub1 (TruB pseudouridine (psi) synthase family member 1)	1	86.8	104
Trub1 (TruB pseudouridine (psi) synthase family member 1)	2	59.3	55.7
Trub1 (TruB pseudouridine (psi) synthase family member 1)	3	111	81.4
Sumo1 (small ubiquitin-like modifier 1)	1	79.5	110
Sumo1 (small ubiquitin-like modifier 1)	2	83.5	86.3
Sumo1 (small ubiquitin-like modifier 1)	3	105	113
Tubgcp2 (tubulin, gamma complex component 2)	1	96.8	77.5
Tubgcp2 (tubulin, gamma complex component 2)	2	67.9	75.2
Tubgcp2 (tubulin, gamma complex component 2)	3	88.1	80.4
Lrp12 (low density lipoprotein-related protein 12)	1	29.5	24.9
Lrp12 (low density lipoprotein-related protein 12)	2	48.3	56.4
Lrp12 (low density lipoprotein-related protein 12)	3	73.9	88.1
Chmp1b2 (charged multivesicular body protein 1B2)	1	47.8	39.5
Chmp1b2 (charged multivesicular body protein 1B2)	2	47.3	51.6
Chmp1b2 (charged multivesicular body protein 1B2)	3	56.3	53.8
Lad1 (ladinin)	1	63.8	79
Lad1 (ladinin)	2	90.6	76.9
Lad1 (ladinin)	3	106	41.1
Srek1ip1	1	75.2	88.2
Srek1ip1	2	73.7	94.9
Srek1ip1	3	65.4	45.7

Part of the list above, set out differently:
target gene | reagent | GFP, % of control | viability (ATP), % of control
Tmem239 (transmembrane 239) | 3 | 75 | 105
Frem1 (Fras1 related extracellular matrix protein 1) | 1 | 101 | 70.5
Frem1 (Fras1 related extracellular matrix protein 1) | 2 | 59.7 | 88.2
Frem1 (Fras1 related extracellular matrix protein 1) | 3 | 112 | 85.5
Tcof1 (treacle ribosome biogenesis factor 1) | 1 | 52.2 | 60.9
Tcof1 (treacle ribosome biogenesis factor 1) | 2 | 68.3 | 44.9
Tcof1 (treacle ribosome biogenesis factor 1) | 3 | 136 (active) | 93.8
Smyd2 (SET and MYND domain containing 2) | 1 | 66.4 | 90.3
Smyd2 (SET and MYND domain containing 2) | 2 | 90.5 | 116
